This passage reports binding results from publication doi:10.1101/2021.05.07.442963.

The target in this assay is T1, ARS2 (mouse (endogenous in FL5.12.xL)) (UniProt Q99MR6).
T1 sequence: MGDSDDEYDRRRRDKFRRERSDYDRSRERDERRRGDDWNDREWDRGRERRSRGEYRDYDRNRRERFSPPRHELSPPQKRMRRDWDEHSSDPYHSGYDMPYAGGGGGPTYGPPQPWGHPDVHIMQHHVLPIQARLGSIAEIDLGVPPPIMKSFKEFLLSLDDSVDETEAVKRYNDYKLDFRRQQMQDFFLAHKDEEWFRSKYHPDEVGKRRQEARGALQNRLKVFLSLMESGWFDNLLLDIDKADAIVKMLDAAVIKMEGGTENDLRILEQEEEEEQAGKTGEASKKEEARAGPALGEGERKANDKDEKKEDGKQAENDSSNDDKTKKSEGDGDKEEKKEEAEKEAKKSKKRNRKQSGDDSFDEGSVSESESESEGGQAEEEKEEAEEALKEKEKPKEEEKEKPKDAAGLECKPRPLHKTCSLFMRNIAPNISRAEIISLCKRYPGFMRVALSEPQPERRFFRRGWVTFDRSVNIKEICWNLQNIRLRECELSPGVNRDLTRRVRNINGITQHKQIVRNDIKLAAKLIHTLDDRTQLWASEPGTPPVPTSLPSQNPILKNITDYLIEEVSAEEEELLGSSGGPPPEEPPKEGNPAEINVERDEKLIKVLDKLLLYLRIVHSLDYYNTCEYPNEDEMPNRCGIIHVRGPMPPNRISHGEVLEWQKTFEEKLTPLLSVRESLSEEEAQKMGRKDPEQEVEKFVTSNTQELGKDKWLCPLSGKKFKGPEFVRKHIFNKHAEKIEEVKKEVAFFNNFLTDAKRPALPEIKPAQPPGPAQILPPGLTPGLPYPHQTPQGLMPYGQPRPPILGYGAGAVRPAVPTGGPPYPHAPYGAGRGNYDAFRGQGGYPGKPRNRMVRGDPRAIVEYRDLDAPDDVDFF
The assay can be described thus: co-IP.

No constants are given. Whether binding was seen depends on the method and setting. In cells and extracts the contact can be indirect. Some results given as binding are weak or reduced against the parent protein; the word gives no strength.

B1: SRSF3 (protein, UniProt P84104 1-164)
chain: MHRDSCPLDCKVYVGNLGNNGNKTELERAFGYYGPLRSVWVARNPPGFAFVEFEDPRDAADAVRELDGRTLCGCRVRVELSNGEKRSRNRGPPPSWGRRPRDDYRRRSPPPRRRSPRRRSFSRSRSRSLSRDRRRERSLSRERNHKPSRSFSRSRSRSRSNERK
Take B1: the binding entry is on record as “binds”.
